Reference: patent US7629471B2, “Transcriptional factor, process for producing the same and use thereof” (NRL Pharma, Inc., priority 2003, dated 2009)

System: Male ICR mice
Experiment: Effect on serum total cholesterol: in-feed vs forced oral administration (Table 1)
Assay type: in vivo
From the text: In contrast, the solubility of Compound-1 in water is as extremely low as about 0.7 g/l; Compounds-1 and -2 are poles apart in terms of solubility in water. […] However, even when both compounds are simply mixed in a mechanical manner into feed in an amount of 0.1% or even when both compounds are given for forced oral administration in the same drug amount calculated from feed intake, there is no reproducibility in their efficacy unlike the case where their acetone solutions are sprayed over feed.

[1] = Spraying of acetone solution over feed

SMILES | Serum colour [1] | Serum colour (Forced oral administration) | Serum colour (Mechanical mixing into feed)
CC(C=CC1(C)C(C)CCC(=O)C1C)=CCc1c(O)c(C=O)c(C)c(Cl)c1OCC(=O)O (stereo not shown) [Compound-2, 4-O-carboxymethylascochlorin] | Serum is yellow. | – | –
COc1c(Cl)c(C)c(C=O)c(O)c1C/C=C(C)/C=C/[C@@]1(C)[C@H](C)CCC(=O)[C@@H]1C [Compound-1, 4-O-methylascochlorin] | Serum is vivid yellow. | tests Serum is not colored. | Serum is not colored.
